## Primary screen of a compound library

Data taken from ChEMBL document CHEMBL3988442, “University of Dundee, Small-Polar-MMV Screening Library” (2021).

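Assay on Mycobacterium tuberculosis, filed only as a heat shock assay from Cornell; the read-out is not stated. The concentration is filed as 10 mM, unlikely as a test dose, so the dose is not known. Higher reads as stronger inhibition (inferred: compounds with an IC50 in retests scored well above the rest). About 69,000 compounds were tested under these conditions; 1.4% (about 930) showed 50% or more at least once.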

The filed quantity is “Percent Effect” (%). The record does not define 0% and 100%; most values in the screen are far below 50% and negative numbers occur (in some assays of this library far below -100). Compounds were drawn at random from those tested, without regard to their results.

| # | compound | percent effect |
|---|---|---|
| 1 | `CC1(C)CN(C(=O)c2ccccc2-n2cncn2)CC1(C)O` (stereo unspecified) | -18.44 |
| 2 | `N#Cc1ccc(N2CCN(C(=O)c3cc(C4CC4)[nH]n3)CC2)c(F)c1` | -4.636 |
| 3 | `CC(=O)N1CCCCCC1C1CCN(c2ncccc2C#N)CC1` (stereo unspecified) | -11.74 |
| 4 | `Cc1cccc(N2CCCC3(C2)CN(S(C)(=O)=O)CCO3)c1` (stereo unspecified) | -5.172 |
| 5 | `C=C(C)CN(CC)C(=O)c1cc(C)ccc1NS(C)(=O)=O` | 10.22 |
| 6 | `CCN1CCN(C(=O)c2nc(C)n(-c3ccccc3Cl)n2)CC1` | 6.556 |
| 7 | `Cn1ccnc1C(NCc1ccccc1)c1ccc(F)cc1` (stereo unspecified) | 113.8 |
| 8 | `COCCN1CCC(c2nc3cc(C)ccc3[nH]2)CC1` | -5.938 |
| 9 | `CCc1nc(CNc2ccc(F)cc2I)no1` | 29.39 |
| 10 | `Cc1ccc(Cl)c2ccc(NC(CO)CO)nc12` | -39.09 |
| 11 | `COc1ccc2nc(C[C@@H]3C[C@@H](C(C)C)[C@H](CN(C)C)C=C3C)[nH]c2n1` | 5.709 |
| 12 | `O=C(NCC1Cn2nnc(-c3ccsc3)c2CO1)c1ccc[nH]1` (stereo unspecified) | -6.932 |
| 13 | `O=C(COC1CCCC1)NCCc1nc(-c2ccccn2)cs1` | -12.51 |
| 14 | `O=C(Cn1cc(C(=O)O)cn1)Nc1c(Cl)cccc1Cl` | 3.558 |
| 15 | `O=C(O)C(F)(F)F.[H][C@@]12OCCN(Cc3ccco3)[C@@]1([H])CC[C@H]2OCC1CCCC1` | 28.74 |
| 16 | `Cc1nn(C)c(N(C)C)c1CNC1CCc2c(Cl)cccc21.Cl` (stereo unspecified) | -14.42 |
| 17 | `Cc1nc(C2CCCN2C(=O)c2ccc(=O)n(C)n2)no1` (stereo unspecified) | -19.74 |
| 18 | `CN1CCOC(C)(C(=O)Nc2nc(C(C)(C)C)cs2)C1` (stereo unspecified) | -8.071 |
| 19 | `Cc1cnn(CCCNC(=O)NC(C)C(=O)Nc2ccccc2)c1` (stereo unspecified) | -23 |
| 20 | `CCc1nc(NC(=O)Cc2csc(-c3nnc[nH]3)n2)sc1C` | -9.763 |
| 21 | `O=C(c1cccnc1-c1ccc2c(c1)OCCO2)N1CCCC1` | 10.2 |
| 22 | `CN(C)C(=O)c1ccc(CNC(=O)NCCN(C)C2CCCC2)cc1` | 3.229 |
| 23 | `O=C(COCC1CC1)N1CCN(C(=O)Cc2ccccn2)CC1` | -23.15 |
| 24 | `CCc1n[nH]c(C2CN(C(=O)c3cc4c(s3)CCC4)CCO2)n1` (stereo unspecified) | -8.494 |
| 25 | `CCOCc1nn(CC2CC2)c2c1CN(Cc1ccco1)CC2.O=C(O)C(F)(F)F` | -3.015 |
| 26 | `Cl.Cl.O[C@@H]1C[C@@](CNCc2ccc(Cl)cc2)(COc2cccnc2)C[C@@H]1O` | -27.84 |
| 27 | `CCN(CC)c1ncnc2c1CCN(CC1CCOCC1)CC2.O=C(O)C(F)(F)F` | -1.054 |
| 28 | `Cn1cc(CN2CCC(c3ncc(Cl)cc3S(C)(=O)=O)CC2)cn1` | -13.38 |
| 29 | `Cc1cc2[nH]c(=O)oc2cc1S(=O)(=O)N1CCC(N2CCCC2=O)CC1` | 1.068 |
| 30 | `COc1ccc(-c2ccc(C(=O)NS(C)(=O)=O)c(F)c2)c(F)c1` | -10.57 |
| 31 | `O=C(CCN1C(=O)CCC1=O)Nc1ccc(OCC(F)(F)F)nc1` | 15.49 |
| 32 | `C[C@@H]1CN(C(=O)C2CCS(=O)(=O)CC2)C[C@@]1(O)C1CC1` | 3.159 |
| 33 | `CC(NC(=O)NC1CCN(Cc2ccccn2)CC1)c1ccco1` (stereo unspecified) | 0.06501 |
| 34 | `CCO[C@@H]1CO[C@@]2(CCCN(Cc3scnc3C)C2)C1.O=C(O)C(F)(F)F` | 1.09 |
| 35 | `CC(C)N1CC2(CCCN(Cc3noc(C4CCCC4)n3)C2)CCC1=O` (stereo unspecified) | -22.59 |
| 36 | `CCOCCn1nc(C)cc1C(=O)N1C[C@@H](C)[C@](O)(C2CC2)C1` | 5.011 |
| 37 | `Cc1ccnc(NCCCN2CCc3ccccc32)n1` | 18.05 |
| 38 | `O=C(O)C(F)(F)F.O=C(O)C(F)(F)F.c1ccc(O[C@@H]2CO[C@@]3(CCCN(CC4CCOCC4)C3)C2)nc1` | 4.549 |
| 39 | `CCC(C)N1CCC(Oc2ccc(C(=O)NCCN(C)C)cc2Cl)CC1` (stereo unspecified) | 1.414 |
| 40 | `CC(=O)NCc1cc2n(n1)CCN(Cc1cc(-c3ccccc3)no1)C2` | -7.789 |
| 41 | `CC(c1ccc(Cl)cc1)N1CCN(CCCS(C)(=O)=O)CC1` (stereo unspecified) | -22.53 |
| 42 | `CNC(=O)c1cc2c(nc1NCC(C)C)CCN(CC1CC1)CC2.O=C(O)C(F)(F)F.O=C(O)C(F)(F)F` | -23.88 |
| 43 | `N#Cc1cccnc1N1CCCN(C(=O)CCc2nccs2)CC1` | -13.52 |
| 44 | `Cc1nnc(CN(Cc2ccccc2Br)C2CC2)o1` | 3.639 |
| 45 | `COCCCN(CCOC)C(=O)Nc1ccc(Br)cc1` | 7.091 |
| 46 | `CCc1ccc(CN2CCC3(CC2)CC(N2CCN(C)CC2)CO3)cc1.O=C(O)C(F)(F)F` (stereo unspecified) | 2.884 |
| 47 | `CCc1c(C)nn(CCN2CC3(CCOC3)CCC2=O)c1C` (stereo unspecified) | 12.9 |
| 48 | `CCCN1CCCn2nc(CNS(=O)(=O)c3cccc(C#N)c3)cc2C1` | 4.728 |
| 49 | `COCCN1CCN(Cc2noc(C3CC3)n2)CC1C` (stereo unspecified) | 16.28 |
| 50 | `CC(C)c1noc(C(C)N2CCN(Cc3ccco3)CC2)n1` (stereo unspecified) | -19.1 |
| 51 | `N#Cc1cc(F)ccc1NCc1ccc(Cn2cncn2)cc1` | -7.449 |
| 52 | `Cc1cc(N2CCN(C(=O)c3cc(Cl)c[nH]3)CC2)nc(N)n1` | -26.2 |
| 53 | `N#Cc1nccnc1N1CCC(Cc2ccccc2)C1` (stereo unspecified) | -8.25 |

For reference, 6 entries once more:

* CCCN1CCCn2nc(CNS(=O)(=O)c3cccc(C#N)c3)cc2C1 : 4.728%
* Cn1cc(CN2CCC(c3ncc(Cl)cc3S(C)(=O)=O)CC2)cn1 : -13.38%
* CC(=O)N1CCCCCC1C1CCN(c2ncccc2C#N)CC1 (stereo unspecified) : -11.74%
* COCCCN(CCOC)C(=O)Nc1ccc(Br)cc1 : 7.091%
* CCO[C@@H]1CO[C@@]2(CCCN(Cc3scnc3C)C2)C1.O=C(O)C(F)(F)F : 1.09%
* CC(NC(=O)NC1CCN(Cc2ccccn2)CC1)c1ccco1 (stereo unspecified) : 0.06501%